# Reference: the supplement of paper PMC7666118
# Amino acid sequences for entries named in this document (tags omitted). A change or cut given only in a name is not applied to a line headed by its entry.
# UniProt O60832: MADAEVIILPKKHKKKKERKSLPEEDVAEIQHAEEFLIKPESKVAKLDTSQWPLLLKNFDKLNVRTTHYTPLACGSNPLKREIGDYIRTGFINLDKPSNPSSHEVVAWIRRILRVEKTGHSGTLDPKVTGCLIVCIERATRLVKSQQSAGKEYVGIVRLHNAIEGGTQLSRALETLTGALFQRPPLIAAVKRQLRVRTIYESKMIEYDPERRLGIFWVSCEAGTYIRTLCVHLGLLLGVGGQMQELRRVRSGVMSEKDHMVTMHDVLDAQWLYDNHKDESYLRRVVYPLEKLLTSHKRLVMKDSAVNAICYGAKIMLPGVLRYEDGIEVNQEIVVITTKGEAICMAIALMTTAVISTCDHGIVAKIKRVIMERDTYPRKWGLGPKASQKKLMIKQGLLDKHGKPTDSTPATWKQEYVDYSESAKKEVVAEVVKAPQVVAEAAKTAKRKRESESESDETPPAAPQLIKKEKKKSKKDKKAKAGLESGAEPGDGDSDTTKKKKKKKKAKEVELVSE
# UniProt Q9H3Z4: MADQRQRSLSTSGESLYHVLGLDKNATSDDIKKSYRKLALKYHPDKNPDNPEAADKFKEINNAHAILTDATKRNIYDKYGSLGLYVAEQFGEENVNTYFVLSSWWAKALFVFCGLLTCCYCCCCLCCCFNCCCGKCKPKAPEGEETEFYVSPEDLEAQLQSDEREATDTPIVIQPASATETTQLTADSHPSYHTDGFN
# UniProt O00115: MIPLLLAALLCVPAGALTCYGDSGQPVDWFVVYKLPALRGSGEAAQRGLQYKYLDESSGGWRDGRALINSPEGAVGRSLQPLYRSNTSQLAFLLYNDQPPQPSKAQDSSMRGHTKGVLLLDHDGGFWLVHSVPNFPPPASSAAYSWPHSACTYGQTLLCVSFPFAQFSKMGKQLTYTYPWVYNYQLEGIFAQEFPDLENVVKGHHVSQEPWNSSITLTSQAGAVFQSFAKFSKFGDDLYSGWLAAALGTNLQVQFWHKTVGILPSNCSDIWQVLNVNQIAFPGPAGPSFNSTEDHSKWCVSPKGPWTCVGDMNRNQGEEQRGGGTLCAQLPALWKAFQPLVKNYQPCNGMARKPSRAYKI
# UniProt Q5F1R6: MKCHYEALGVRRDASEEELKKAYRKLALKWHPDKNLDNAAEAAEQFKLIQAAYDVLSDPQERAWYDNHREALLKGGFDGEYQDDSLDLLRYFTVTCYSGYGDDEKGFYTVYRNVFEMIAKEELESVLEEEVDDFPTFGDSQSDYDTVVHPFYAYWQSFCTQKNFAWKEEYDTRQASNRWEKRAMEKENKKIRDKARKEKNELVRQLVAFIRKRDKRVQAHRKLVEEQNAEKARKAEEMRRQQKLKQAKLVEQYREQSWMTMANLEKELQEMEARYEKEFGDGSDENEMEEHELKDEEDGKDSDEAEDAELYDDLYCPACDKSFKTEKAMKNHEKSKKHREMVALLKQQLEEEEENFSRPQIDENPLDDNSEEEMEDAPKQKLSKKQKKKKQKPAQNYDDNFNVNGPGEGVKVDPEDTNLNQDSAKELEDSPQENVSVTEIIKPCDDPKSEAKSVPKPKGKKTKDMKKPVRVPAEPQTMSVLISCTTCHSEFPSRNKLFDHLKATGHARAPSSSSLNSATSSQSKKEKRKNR
# UniProt P61803: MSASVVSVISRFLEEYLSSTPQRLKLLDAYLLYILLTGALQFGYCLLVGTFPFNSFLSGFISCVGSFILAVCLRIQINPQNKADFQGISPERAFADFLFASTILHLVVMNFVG
# UniProt Q96N67: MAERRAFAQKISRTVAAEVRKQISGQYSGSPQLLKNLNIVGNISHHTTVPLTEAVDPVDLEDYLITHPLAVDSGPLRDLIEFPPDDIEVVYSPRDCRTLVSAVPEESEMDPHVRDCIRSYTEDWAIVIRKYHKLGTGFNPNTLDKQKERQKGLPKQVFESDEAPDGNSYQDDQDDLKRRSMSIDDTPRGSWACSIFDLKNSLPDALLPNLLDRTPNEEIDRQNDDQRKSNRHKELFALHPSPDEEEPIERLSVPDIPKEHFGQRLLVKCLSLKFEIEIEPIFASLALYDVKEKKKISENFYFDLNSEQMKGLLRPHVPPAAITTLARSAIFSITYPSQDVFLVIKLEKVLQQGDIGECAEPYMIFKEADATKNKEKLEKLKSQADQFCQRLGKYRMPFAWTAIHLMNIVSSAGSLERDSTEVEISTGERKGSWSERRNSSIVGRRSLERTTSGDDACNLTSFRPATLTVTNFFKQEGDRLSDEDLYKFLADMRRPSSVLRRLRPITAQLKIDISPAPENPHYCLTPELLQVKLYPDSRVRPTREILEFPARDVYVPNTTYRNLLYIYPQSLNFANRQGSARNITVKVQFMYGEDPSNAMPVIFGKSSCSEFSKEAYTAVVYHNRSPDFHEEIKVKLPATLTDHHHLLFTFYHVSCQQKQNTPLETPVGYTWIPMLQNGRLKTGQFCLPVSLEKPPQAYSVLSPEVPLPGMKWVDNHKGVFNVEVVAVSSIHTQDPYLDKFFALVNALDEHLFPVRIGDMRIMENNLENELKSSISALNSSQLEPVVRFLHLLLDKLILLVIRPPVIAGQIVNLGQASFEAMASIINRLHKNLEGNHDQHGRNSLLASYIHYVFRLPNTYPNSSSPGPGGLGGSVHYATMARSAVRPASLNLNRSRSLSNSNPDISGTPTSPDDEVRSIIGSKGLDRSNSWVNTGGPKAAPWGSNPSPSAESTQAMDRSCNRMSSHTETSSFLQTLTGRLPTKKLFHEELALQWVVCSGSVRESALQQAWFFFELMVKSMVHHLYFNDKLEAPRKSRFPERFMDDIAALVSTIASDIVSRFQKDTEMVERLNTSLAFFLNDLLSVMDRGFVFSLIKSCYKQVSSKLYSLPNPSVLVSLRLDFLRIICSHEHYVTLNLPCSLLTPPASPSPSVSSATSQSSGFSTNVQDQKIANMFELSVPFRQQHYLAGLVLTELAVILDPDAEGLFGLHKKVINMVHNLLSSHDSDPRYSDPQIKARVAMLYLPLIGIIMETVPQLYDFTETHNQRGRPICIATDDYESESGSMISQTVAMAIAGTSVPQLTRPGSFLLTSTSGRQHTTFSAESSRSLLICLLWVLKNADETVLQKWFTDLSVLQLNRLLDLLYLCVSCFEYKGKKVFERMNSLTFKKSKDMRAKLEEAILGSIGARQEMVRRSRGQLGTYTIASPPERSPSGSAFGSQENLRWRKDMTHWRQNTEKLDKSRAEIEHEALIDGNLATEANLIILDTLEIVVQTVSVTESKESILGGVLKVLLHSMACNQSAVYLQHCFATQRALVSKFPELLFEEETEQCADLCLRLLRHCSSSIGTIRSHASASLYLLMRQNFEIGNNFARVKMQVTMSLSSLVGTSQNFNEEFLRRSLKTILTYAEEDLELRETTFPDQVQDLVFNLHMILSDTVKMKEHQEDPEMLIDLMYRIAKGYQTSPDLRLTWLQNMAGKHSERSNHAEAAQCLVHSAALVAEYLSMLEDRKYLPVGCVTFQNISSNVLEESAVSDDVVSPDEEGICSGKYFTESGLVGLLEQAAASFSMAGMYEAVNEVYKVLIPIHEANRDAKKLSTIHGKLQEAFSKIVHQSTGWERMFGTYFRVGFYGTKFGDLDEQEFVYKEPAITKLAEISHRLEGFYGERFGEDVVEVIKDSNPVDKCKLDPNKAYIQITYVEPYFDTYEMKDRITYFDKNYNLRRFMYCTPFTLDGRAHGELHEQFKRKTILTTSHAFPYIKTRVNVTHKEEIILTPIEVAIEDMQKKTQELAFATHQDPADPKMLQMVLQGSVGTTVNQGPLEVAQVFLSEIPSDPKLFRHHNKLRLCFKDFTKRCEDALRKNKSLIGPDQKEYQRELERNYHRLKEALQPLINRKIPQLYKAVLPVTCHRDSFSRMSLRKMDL
# UniProt Q16850: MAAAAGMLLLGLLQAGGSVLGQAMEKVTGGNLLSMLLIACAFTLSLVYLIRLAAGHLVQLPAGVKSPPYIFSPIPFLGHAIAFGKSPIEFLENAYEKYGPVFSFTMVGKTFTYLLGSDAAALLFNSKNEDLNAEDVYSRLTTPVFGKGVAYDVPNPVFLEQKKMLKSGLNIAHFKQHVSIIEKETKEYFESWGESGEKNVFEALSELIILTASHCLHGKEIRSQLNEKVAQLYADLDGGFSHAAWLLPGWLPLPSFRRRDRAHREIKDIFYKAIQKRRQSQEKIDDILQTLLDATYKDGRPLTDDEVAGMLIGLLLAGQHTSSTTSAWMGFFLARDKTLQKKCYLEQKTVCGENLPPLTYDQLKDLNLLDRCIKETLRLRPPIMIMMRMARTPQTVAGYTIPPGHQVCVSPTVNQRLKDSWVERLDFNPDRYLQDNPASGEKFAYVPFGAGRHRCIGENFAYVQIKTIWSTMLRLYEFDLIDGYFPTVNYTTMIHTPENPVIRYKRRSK
# UniProt O00571: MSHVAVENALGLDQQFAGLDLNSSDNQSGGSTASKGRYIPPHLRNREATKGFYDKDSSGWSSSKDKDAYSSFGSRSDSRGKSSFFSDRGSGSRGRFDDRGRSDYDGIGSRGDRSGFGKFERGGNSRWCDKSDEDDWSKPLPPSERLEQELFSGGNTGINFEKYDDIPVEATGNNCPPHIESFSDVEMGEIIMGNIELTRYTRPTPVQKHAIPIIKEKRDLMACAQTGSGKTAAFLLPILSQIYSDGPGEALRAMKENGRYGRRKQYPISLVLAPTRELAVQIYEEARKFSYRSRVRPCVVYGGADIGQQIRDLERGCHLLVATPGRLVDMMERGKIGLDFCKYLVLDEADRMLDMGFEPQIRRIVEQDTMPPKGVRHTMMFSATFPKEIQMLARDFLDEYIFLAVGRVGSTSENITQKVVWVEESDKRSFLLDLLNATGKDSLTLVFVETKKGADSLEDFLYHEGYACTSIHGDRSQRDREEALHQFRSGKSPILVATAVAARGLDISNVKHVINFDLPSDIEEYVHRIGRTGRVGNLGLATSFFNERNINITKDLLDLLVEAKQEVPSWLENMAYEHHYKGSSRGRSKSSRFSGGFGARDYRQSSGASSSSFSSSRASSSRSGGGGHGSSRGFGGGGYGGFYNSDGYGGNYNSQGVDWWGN
# UniProt Q7L014: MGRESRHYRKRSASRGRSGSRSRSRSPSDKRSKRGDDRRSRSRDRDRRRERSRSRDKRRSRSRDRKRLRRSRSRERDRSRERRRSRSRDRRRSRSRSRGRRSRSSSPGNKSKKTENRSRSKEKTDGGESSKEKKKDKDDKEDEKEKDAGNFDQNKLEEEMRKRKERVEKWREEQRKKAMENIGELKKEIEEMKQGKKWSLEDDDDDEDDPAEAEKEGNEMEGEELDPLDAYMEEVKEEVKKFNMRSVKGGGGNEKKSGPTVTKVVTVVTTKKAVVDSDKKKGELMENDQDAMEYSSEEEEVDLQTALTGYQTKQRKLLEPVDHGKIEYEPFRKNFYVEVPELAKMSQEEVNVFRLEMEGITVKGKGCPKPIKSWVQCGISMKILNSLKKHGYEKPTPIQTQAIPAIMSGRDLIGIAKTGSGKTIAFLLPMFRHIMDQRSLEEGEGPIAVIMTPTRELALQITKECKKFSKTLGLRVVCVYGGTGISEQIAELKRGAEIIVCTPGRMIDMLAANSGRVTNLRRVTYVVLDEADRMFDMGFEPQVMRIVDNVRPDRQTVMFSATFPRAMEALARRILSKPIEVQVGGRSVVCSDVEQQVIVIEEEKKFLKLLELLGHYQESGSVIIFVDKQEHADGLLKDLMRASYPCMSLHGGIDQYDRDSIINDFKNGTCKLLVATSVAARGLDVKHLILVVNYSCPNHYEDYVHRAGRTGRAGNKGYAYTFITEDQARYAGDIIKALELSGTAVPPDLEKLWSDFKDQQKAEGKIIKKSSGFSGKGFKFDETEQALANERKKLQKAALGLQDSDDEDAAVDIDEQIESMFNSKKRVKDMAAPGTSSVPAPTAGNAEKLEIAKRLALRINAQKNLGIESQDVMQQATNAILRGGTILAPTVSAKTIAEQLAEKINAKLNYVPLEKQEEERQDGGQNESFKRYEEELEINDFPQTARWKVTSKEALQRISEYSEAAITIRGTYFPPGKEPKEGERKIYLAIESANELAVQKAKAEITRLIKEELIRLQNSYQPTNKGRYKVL
# UniProt P32321: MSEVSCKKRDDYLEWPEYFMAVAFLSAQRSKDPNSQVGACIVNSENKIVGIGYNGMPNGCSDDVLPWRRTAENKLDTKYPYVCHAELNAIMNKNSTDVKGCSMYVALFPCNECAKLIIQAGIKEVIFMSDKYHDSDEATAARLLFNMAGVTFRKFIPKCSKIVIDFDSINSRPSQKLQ
# UniProt P81605: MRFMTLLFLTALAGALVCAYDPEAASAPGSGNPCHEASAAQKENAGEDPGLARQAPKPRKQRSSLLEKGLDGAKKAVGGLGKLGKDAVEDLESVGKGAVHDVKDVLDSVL
# UniProt O75937: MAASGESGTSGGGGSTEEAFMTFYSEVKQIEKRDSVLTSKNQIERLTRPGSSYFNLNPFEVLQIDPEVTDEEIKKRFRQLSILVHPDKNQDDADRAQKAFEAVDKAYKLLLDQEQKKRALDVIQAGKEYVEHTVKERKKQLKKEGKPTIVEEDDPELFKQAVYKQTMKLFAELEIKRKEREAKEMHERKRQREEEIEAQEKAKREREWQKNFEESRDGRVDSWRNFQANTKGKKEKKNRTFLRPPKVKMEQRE
# Some of the results follow.
# Compound: COc1ccc(Cn2ccc3cc(C)c(C(=O)NO)cc32)cc1
# Assay: dose-dependent thermal stabilisation call (2D-TPP, DLPTP, 10% FDR) (binary (1 = stabilised)); higher = stabilised by the compound
# Conditions: system: HL-60 intact cells; concentration range 0.04-10 µM
# Procedure: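 2D thermal proteome profiling in intact HL-60 cells treated with BRD-3811 (0, 0.04, 0.29, 2, 10 uM) for 90 min at 37 C, then heated 3 min at one of 12 temperatures (42-63.9 C). Soluble protein was quantified by TMT10 MS. The value is the DLPTP call of the paper: dose-dependent thermal stabilisation over all temperatures at 10% FDR (F-test of a dose-response against a flat model); one experiment, one call per tested protein.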
row,Target,dose-dependent thermal stabilisation call
1,DKC1 (UniProt O60832),inactive: 0
2,DPP8 (UniProt Q6V1X1),inactive: 0
3,DNAJC5 (UniProt Q9H3Z4),inactive: 0
4,CUGBP2 (UniProt O95319),inactive: 0
5,CSRP1 (UniProt P21291),inactive: 0
6,DPYD (UniProt Q12882),inactive: 0
7,CWF19L1 (UniProt Q69YN2),inactive: 0
8,DNM1 (UniProt Q05193),inactive: 0
9,DDX49 (UniProt Q9Y6V7),inactive: 0
10,DOPEY2 (UniProt Q9Y3R5),inactive: 0
11,DIDO1 (UniProt Q9BTC0),inactive: 0
12,CTDP1 (UniProt Q9Y5B0),inactive: 0
13,DNASE2 (UniProt O00115),inactive: 0
14,DDX59 (UniProt Q5T1V6),inactive: 0
15,DPY19L4 (UniProt Q7Z388),inactive: 0
16,DENND4B (UniProt O75064),inactive: 0
17,DNAJC21 (UniProt Q5F1R6),inactive: 0
18,DAD1 (UniProt P61803),inactive: 0

row,Target,dose-dependent thermal stabilisation call
1,DOLPP1 (UniProt Q86YN1),inactive: 0
2,DOCK7 (UniProt Q96N67),inactive: 0
3,DDX20 (UniProt Q9UHI6),inactive: 0
4,CTPS (UniProt P17812),inactive: 0
5,DDX50 (UniProt Q9BQ39),inactive: 0
6,DDX6 (UniProt P26196),inactive: 0
7,CSNK1A1 (UniProt P48729),inactive: 0
8,CYP51A1 (UniProt Q16850),inactive: 0
9,DDX3X (UniProt O00571),inactive: 0
10,DDX46 (UniProt Q7L014),inactive: 0
11,DCTD (UniProt P32321),inactive: 0
12,DCD (UniProt P81605),inactive: 0
13,DPH5 (UniProt Q9H2P9),inactive: 0
14,CXXC1 (UniProt Q9P0U4),inactive: 0
15,DNAJC8 (UniProt O75937),inactive: 0
16,DDX39 (UniProt O00148),inactive: 0
17,DDX19A (UniProt Q9NUU7),inactive: 0
18,DEGS1 (UniProt O15121),inactive: 0

# Some of the entries above in a different format:
row | Target | dose-dependent thermal stabilisation call
17 | DDX19A (UniProt Q9NUU7) | inactive: 0
18 | DEGS1 (UniProt O15121) | inactive: 0
